Results reported in PubChem BioAssay AID2685 (National Center for Advancing Translational Sciences (NCATS), 2010).
Some of the results follow. Shown are side measurements of this screen, not its main read-out; they come without a call. The list favours compounds with an active or inconclusive main result. The note in brackets gives the kind of curve behind each potency; many fits are weak.

Test: qHTS Assay for Lipid Storage Modulators in Drosophila S3 Cells;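 as to cell number change: cells counted by Cell Tracker Red CMTPX staining in the red channel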
Conditions: BODIPY lipid droplet fluorescence, 18-24 h; for cell number change: measured here: cell count max response, cells fed with added oleic acid
Procedure, shortened: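 Drosophila S3 cells loaded with oleic acid (400 uM, as added) and compounds at several concentrations; lipid droplets imaged by 488-nm laser-scanning cytometry, 500–530 nm intensity and object ratio to cell channel. Percent activity normalized to 20 uM Triacsin C.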

[1] = measured here: cell number channel AC50, cells fed with added oleic acid
[2] = measured here: lipid fluorescence (Fed channel) AC50, cells fed with added oleic acid

Row | SMILES | AC50 [1] | cell number change [%] | AC50 [2]
1 | C/C(=N/NC(=O)C(=O)N/N=C(/C)c1ccccc1)c1ccccc1 | 0.00411 µM [rising, full curve, poor fit] |  | 
2 | COC(=O)c1ccc(Oc2nc(N(C)C)nc(N3CCOCC3)n2)cc1 | 0.103 µM [rising, full curve, poor fit] | -18.4 | 
3 | O=C(CSc1nc2ccccc2s1)Nc1ccc2c(c1)OCO2 |  | -12.4 | 13 µM [rising, single point]
4 | CN1CCC(OC(=O)c2cccc(Cl)c2)CC1 |  | 16.6 | 
5 | Cc1ccc(-c2csc(N(CCO)CCCn3c(C(F)(F)F)nc4cc(C(F)(F)F)ccc43)n2)cc1 | 20.6 µM [falling, partial curve, poor fit] | -34.1 | 20.6 µM [falling, single point]
6 | O=C(CN1CCN(c2nc(-c3ccc(F)cc3)cs2)CC1)Nc1ccc2c(c1)OCO2 |  | 6.33 | 20.6 µM [rising, single point]
7 | O=S(=O)(c1ccccc1)c1cnc2ccccc2c1 |  | 22.5 | 
8 | OCCn1c(SCCOc2ccccc2F)nc2ccccc21 | 2.91 µM [rising, partial curve] |  | 
9 | O=C1C=C(c2ccc(-c3ccccc3)c(F)c2)C[C@@H](c2ccc(Cl)cc2)C1 | 20.6 µM [falling, single point] | -44.1 | 
10 | COCCn1c(SCC#N)nnc1-c1ccc2c(c1)OCO2 |  | -18 | 4.61 µM [rising, single point]
11 | COc1cc(/C=N/n2nnnc2N)ccc1O |  | -1.38 | 10.3 µM [falling, partial curve]
12 | O=C(N/N=C/c1c(O)ccc2ccccc12)c1ccc[n+](CCO)c1 | 23.1 µM [falling, partial curve] | -133 | 23.1 µM [falling, partial curve]
13 | Cc1ccc(C)c(OCCn2ccnc2)c1 |  | 11.3 | 29.1 µM [falling, single point]
14 | CCN(CC(=O)N1CCc2ccccc2C1)S(=O)(=O)c1ccc2ccccc2c1 |  |  | 6.51 µM [falling, single point]
15 | COc1ccc(NC(=O)Nc2cc(C(C)(C)C)on2)cc1OC |  | 2.7 | 29.1 µM [falling, single point]
16 | Cn1c(=O)[nH]c(=O)c2c1nc(N1CCN(Cc3ccccc3)CC1)n2CCSc1ncccn1 | 2.91 µM [falling, single point] | 5.19 | 
17 | CC1(C)CC(=O)C=C(C(=O)N2CCCC(C(=O)c3cccc(Cl)c3)C2)O1 (configuration not stated) |  | -10.3 | 29.1 µM [falling, single point]
18 | COC(=O)CSc1nnc(-c2ccc(S(=O)(=O)NCc3ccccc3Cl)cc2)o1 |  | -12.4 | 2.06 µM [falling, partial curve, poor fit]
19 | O=C(N/N=C1/CCSC1)c1cccc([N+](=O)[O-])c1 | 29.1 µM [falling, single point] | -52.5 | 4.61 µM [rising, single point]
20 | Cc1ccc(Cn2ccc(NC(=O)c3cc(C(C)C)on3)n2)cc1 |  | 20.4 | 23.1 µM [falling, partial curve]
21 | Cc1onc(-c2ccccc2)c1C(=O)Nc1ccc2c(C)cc(=O)oc2c1 |  | -12.4 | 

Row | SMILES | AC50 [1] | cell number change [%] | AC50 [2]
22 | COc1ccc(/C=C(/NC(=O)c2ccco2)C(=O)N2CCCC2=O)cc1 |  | 24.6 | 13 µM [rising, partial curve]
23 | CC(C)Cc1nnc(NC(=O)CCC(=O)NCCc2ccccc2)s1 |  | 15 | 
24 | CC1CCCCC12NC(=O)N(CC(=O)N1CCN(S(=O)(=O)/C=C/c3ccccc3)CC1)C2=O (configuration not stated) |  | -10.1 | 6.51 µM [falling, single point]
25 | O=C(CCNS(=O)(=O)c1cccc2nonc12)Nc1ccc(Cl)cc1 |  | 14.2 | 0.517 µM [rising, partial curve, poor fit]
26 | Fc1ccc(/C=N/Nc2ncnc3nc[nH]c23)cc1F |  | -7.07 | 0.206 µM [falling, full curve, poor fit]
27 | CCn1c(SCC(=O)NCc2ccco2)nnc1-c1c[nH]c2ccccc12 |  | 13.3 | 
28 | FC(F)(F)c1cccc(NC(=S)NC(c2ccccc2)c2ccccc2)c1 | 6.51 µM [falling, partial curve] | -54.1 | 5.17 µM [falling, partial curve]
29 | COC(=O)c1cc(=O)n(Cc2ccc3c(c2)OCO3)c(=Nc2ccc(F)cc2)s1 | 0.651 µM [rising, full curve, poor fit] | 33.5 | 2.31 µM [rising, partial curve]
30 | COc1cc2c(cc1OC)C(c1ccccc1O)NCC2 (configuration not stated) |  | 2.21 | 23.1 µM [rising, partial curve]
31 | CC(C)c1nc2c(c(=O)n(C)c(=O)n2C)n1C |  | -12.5 | 0.291 µM [falling, full curve, poor fit]
32 | Cc1cc(NC(=O)c2cc3cccc([N+](=O)[O-])c3[nH]2)ccc1F |  | 0.763 | 1.64 µM [rising, partial curve, poor fit]
33 | CCOC(=O)C(=NC(C)CC)NNc1ccc(Br)cc1 (configuration not stated) |  | -10.8 | 
34 | C/C(=N\Nc1nc(C(C)(C)C)cs1)c1ccc(O)cc1 | 1.03 µM [falling, full curve, poor fit] | -26.7 | 0.651 µM [falling, full curve]
35 | COC(=O)c1c(NC(=O)CC2Nc3cc(C)c(C)cc3NC2=O)sc(C)c1C (configuration not stated) | 1.64 µM [rising, partial curve, poor fit] | 31.2 | 
36 | CCN(CC)CCNC(=O)CCN1N=C(c2ccccc2)CCC1=O |  | 19.9 | 
37 | CC(=O)N1N=C(c2ccccc2)CC1c1cccc([N+](=O)[O-])c1 (configuration not stated) |  | 9.12 | 2.91 µM [falling, single point]
38 | Cc1cccnc1NC(=O)Nc1cccc(Cl)c1 |  | -12.3 | 
39 | COC(=O)c1sc(-c2ccc(Cl)cc2)cc1NC(=O)c1ccccc1C(=O)O |  | 5.67 | 5.8 µM [rising, full curve, poor fit]
40 | CCN(c1ccc(NC(=O)COC(=O)C(C)N=C2NS(=O)(=O)c3ccccc32)cc1)C(C)C (configuration not stated) | 10.3 µM [falling, partial curve, poor fit] | -38 | 
41 | COc1ccc(NC(=O)C2CCCN2S(=O)(=O)c2cccs2)c([N+](=O)[O-])c1 (configuration not stated) | 16.4 µM [rising, partial curve] | 65.5 | 
42 | Clc1ccc(CNc2nnnn2-c2ccccc2)c(Cl)c1 |  | -6.66 | 

Quoted from above: compounds 39–42
Row | SMILES | AC50 [1] | cell number change [%] | AC50 [2]
39 | COC(=O)c1sc(-c2ccc(Cl)cc2)cc1NC(=O)c1ccccc1C(=O)O |  | 5.67 | 5.8 µM [rising, full curve, poor fit]
40 | CCN(c1ccc(NC(=O)COC(=O)C(C)N=C2NS(=O)(=O)c3ccccc32)cc1)C(C)C (configuration not stated) | 10.3 µM [falling, partial curve, poor fit] | -38 | 
41 | COc1ccc(NC(=O)C2CCCN2S(=O)(=O)c2cccs2)c([N+](=O)[O-])c1 (configuration not stated) | 16.4 µM [rising, partial curve] | 65.5 | 
42 | Clc1ccc(CNc2nnnn2-c2ccccc2)c(Cl)c1 |  | -6.66 | 

(cont.)

Row | SMILES | AC50 [1] | cell number change [%] | AC50 [2]
43 | Cc1ccc(Oc2ccccc2NC(=O)CN2C(=O)NC3(CCCC3)C2=O)cc1 | 0.517 µM [rising, partial curve, poor fit] | 17.9 | 29.1 µM [rising, single point]
44 | Cc1cc(C)nc(NN2C(=O)/C(=C/c3ccc(O)cc3)SC2=S)n1 |  | 16.9 | 3.26 µM [rising, single point]
45 | Cc1cccc2cc(COC(=O)c3ccccn3)c(=O)[nH]c12 | 0.184 µM [rising, full curve, poor fit] | 35.7 | 11.6 µM [rising, partial curve]
46 | COc1ccc(-n2cnnc2SCC(=O)NC2CCCc3ccccc32)cc1 (configuration not stated) |  | 0.549 | 
47 | N/C(=N\OC(=O)c1ccc(F)cc1)c1nonc1N |  | -10 | 32.6 µM [rising, single point]
48 | CC(C)c1ccccc1NC(=O)COc1ccc2c(=O)c(Oc3ccc4ccccc4c3)coc2c1 | 0.517 µM [falling, full curve, poor fit] | -13.8 | 
49 | CCc1ccc(OCC(=O)N/N=C/c2cc([N+](=O)[O-])ccc2N2CCOCC2)cc1 |  | 8.04 | 0.146 µM [rising, full curve, poor fit]
50 | CCN1CCN(C(CNS(=O)(=O)c2ccccc2)c2ccccc2)CC1 (configuration not stated) |  |  | 6.51 µM [rising, single point]
51 | CCn1c(C)c(C)c2cc(C(=O)NCCc3ccco3)ccc21 |  | 12.5 | 29.1 µM [rising, single point]
52 | CC(C)(C)OC(=O)N[C@@H](Cc1ccccc1)C(=O)N1CCC(C(=O)N[C@@H](Cc2c[nH]c3ccccc23)C(=O)O)CC1 |  | -19.4 | 
53 | Cc1ccc(N=C2CCCCCN2C)c(C#N)c1 | 13 µM [falling, partial curve, poor fit] | -34 | 11.6 µM [falling, partial curve, poor fit]
54 | O=C(Nc1cccc2c1CCCC2)c1ccco1 | 7.31 µM [falling, single point] | -9.56 | 
55 | CC(C)(CNC(=O)C1CCCC1)CNC(=O)C1CCCC1 |  | 11.2 | 0.00461 µM [falling, full curve, poor fit]
56 | CC(Sc1nc2c(c(=O)[nH]1)CCCC2)C(=O)Nc1ccc(Br)cn1 (configuration not stated) |  | 9.4 | 23.1 µM [falling, single point]
57 | Cc1ccc(F)c(NC(=S)Nc2cccc3ccccc23)c1 |  | 27.2 | 35.5 µM [rising, single point]
58 | Cc1cc(NC(=O)CSc2nc(-c3ccccc3)c(C#N)c(=O)[nH]2)no1 |  | -1.43 | 2.59 µM [falling, partial curve]
59 | Cn1c(NC(=O)c2cccc(Cn3cc(Cl)cn3)c2)nc2ccccc21 |  | -13.9 | 0.731 µM [rising, full curve]
60 | Cc1cc(CC(=O)O)n(C)c1C(=O)c1ccc(Cl)cc1 |  | 15.1 | 1.16 µM [rising, partial curve]
61 | Cc1cc(N)n2ncc(-c3cccc(Br)c3)c2n1 | 16.4 µM [falling, partial curve] | -39.8 | 29.1 µM [falling, single point]
